Data as given in PubChem BioAssay AID1259254 (NCATS, 2017)
Here is a random part of about 59,000 reagents tested. About 1,550 of all reagents (2.6%) count as active. 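G2 share is only a proxy for re-replication; each gene was hit by three separate siRNAs, and active genes were retested.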 The numbers tell different reagents against one gene apart. Further read-outs or replicates are left out here. No sequences are given here. The record does not give: the amount of reagent.

- Purpose: 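Finding genes that stop cells copying their DNA twice in one cycle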 (primary screen)
- Cell system: human HCT116 colorectal cancer cells
- Reagent: single siRNA against human genes
- Timing: 3 days
- Read-out: 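Imaged Hoechst DNA stain sorts each cell into a cycle phase by DNA amount; per plate, G2 fraction set to 0% for non-targeting and 100% for GMNN siRNA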
- Direction: G2 robust z-score: higher = more G2 cells, more excess DNA replication
- Rule for the call: 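An siRNA counts as active if its G2 robust z-score lies at least 5 MADs above the screen median; here such calls match roughly 38% of GMNN control or more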

SCAMP1 #1 gave G2 robust z-score 0.52; inactive.
Depletion of SCAMP1 #2 came out at: G2 robust z-score 0.129; inactive.
For SCAMP1 #3, the values are G2 robust z-score 0.615; inactive.
With knock-down of ZBTB11 (zinc finger and BTB domain containing 11) #1 the results were G2 robust z-score -0.664; inactive.
ZBTB11 (zinc finger and BTB domain containing 11) #2 scored G2 robust z-score 4.13; inactive.
For ZBTB11 (zinc finger and BTB domain containing 11) #3, the values are G2 robust z-score -0.585; inactive.
EEF1AKMT1 (EEF1A lysine methyltransferase 1) #1 showed G2 robust z-score -0.17; inactive.
EEF1AKMT1 (EEF1A lysine methyltransferase 1) #2 scored G2 robust z-score -0.1; inactive.
EEF1AKMT1 (EEF1A lysine methyltransferase 1) #3 gave G2 robust z-score 0.532; inactive.
After knock-down of ZNF22-AS1 (ZNF22 antisense RNA 1) #1, the screen gave G2 robust z-score 0.0968; inactive.
With knock-down of ZNF22-AS1 (ZNF22 antisense RNA 1) #2 the results were G2 robust z-score 0.0987; inactive.
ZNF22-AS1 (ZNF22 antisense RNA 1) #3 scored G2 robust z-score -0.136; inactive.

2 neighbouring reagents already listed, quoted:
EEF1AKMT1 (EEF1A lysine methyltransferase 1) #3 → G2 robust z-score = 0.532; Outcome = inactive
ZNF22-AS1 (ZNF22 antisense RNA 1) #1 → G2 robust z-score = 0.0968; Outcome = inactive
